In the supplement of paper PMC10849652:
The other results are listed elsewhere or left out.

Protein sequences, listed by entry. Tags and fused reporters are not part of them. Lines headed by an entry give the natural chain unless they say otherwise; changes in a name come on top.
UniProt Q15542, whole entry, looked up: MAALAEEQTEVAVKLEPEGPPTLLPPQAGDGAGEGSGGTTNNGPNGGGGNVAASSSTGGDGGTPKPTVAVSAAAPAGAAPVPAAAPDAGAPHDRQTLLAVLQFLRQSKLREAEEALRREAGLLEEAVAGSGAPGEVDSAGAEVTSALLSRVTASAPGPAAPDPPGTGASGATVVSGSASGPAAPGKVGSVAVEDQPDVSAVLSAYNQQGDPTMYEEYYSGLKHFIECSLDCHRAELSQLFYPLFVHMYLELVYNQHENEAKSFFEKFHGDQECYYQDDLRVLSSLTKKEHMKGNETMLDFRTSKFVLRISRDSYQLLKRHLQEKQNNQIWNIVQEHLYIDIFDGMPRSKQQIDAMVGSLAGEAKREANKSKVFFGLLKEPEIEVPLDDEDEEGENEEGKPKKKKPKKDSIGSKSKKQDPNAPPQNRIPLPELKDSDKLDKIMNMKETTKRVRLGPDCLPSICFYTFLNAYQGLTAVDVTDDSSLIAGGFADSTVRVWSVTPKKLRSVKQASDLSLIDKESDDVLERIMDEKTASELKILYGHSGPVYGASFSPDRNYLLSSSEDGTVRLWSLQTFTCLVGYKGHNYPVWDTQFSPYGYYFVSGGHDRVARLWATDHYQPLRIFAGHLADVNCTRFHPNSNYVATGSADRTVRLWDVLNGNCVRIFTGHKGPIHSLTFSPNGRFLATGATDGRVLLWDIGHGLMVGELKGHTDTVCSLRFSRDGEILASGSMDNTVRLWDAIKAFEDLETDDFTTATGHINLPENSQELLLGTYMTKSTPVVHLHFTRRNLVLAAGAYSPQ
UniProt Q8TDR2: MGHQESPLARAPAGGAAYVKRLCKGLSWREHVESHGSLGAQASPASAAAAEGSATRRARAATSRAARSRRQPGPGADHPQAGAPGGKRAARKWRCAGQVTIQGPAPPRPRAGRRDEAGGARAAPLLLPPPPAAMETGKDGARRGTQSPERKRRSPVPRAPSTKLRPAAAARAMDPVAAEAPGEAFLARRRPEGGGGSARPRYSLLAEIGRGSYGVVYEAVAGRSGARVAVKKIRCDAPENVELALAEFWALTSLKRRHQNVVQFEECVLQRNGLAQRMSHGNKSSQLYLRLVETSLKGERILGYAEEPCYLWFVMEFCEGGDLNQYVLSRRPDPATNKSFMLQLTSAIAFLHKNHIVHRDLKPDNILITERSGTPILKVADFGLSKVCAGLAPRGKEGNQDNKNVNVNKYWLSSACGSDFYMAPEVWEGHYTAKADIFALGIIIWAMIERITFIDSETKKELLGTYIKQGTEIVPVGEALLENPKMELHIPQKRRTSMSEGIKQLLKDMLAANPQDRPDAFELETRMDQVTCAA
UniProt Q9UH99: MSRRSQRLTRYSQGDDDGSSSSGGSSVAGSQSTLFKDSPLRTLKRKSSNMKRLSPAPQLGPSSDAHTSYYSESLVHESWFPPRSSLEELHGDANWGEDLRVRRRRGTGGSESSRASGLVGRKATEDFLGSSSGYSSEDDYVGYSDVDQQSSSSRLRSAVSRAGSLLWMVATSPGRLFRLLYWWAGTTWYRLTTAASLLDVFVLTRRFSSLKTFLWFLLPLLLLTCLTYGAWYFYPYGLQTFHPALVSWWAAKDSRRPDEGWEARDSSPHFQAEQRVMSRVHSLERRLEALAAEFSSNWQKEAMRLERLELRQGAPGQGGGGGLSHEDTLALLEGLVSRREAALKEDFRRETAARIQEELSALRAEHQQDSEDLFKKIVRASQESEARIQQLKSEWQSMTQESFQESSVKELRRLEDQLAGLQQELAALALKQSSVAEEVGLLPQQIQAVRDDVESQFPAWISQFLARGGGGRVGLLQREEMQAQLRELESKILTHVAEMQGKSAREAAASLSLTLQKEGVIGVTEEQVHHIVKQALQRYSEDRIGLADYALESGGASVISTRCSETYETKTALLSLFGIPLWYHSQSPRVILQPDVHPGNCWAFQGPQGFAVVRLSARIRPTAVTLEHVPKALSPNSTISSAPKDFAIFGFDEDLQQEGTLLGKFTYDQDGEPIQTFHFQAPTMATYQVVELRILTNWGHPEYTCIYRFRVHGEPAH
UniProt Q6NVH7: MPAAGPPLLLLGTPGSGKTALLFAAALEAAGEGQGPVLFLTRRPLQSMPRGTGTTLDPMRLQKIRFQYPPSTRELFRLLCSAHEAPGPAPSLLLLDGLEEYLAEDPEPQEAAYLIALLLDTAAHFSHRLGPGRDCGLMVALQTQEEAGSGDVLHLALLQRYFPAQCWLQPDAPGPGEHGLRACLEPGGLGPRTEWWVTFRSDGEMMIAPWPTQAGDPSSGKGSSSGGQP
UniProt P0DMM9: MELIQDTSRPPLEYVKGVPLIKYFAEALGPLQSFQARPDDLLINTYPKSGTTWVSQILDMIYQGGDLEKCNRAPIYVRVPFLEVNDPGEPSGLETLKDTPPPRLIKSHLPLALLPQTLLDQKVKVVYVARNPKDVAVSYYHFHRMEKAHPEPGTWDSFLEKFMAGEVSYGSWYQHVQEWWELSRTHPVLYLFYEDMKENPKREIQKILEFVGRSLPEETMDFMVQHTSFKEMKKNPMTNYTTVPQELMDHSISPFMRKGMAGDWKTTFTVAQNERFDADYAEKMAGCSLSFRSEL
UniProt Q13033: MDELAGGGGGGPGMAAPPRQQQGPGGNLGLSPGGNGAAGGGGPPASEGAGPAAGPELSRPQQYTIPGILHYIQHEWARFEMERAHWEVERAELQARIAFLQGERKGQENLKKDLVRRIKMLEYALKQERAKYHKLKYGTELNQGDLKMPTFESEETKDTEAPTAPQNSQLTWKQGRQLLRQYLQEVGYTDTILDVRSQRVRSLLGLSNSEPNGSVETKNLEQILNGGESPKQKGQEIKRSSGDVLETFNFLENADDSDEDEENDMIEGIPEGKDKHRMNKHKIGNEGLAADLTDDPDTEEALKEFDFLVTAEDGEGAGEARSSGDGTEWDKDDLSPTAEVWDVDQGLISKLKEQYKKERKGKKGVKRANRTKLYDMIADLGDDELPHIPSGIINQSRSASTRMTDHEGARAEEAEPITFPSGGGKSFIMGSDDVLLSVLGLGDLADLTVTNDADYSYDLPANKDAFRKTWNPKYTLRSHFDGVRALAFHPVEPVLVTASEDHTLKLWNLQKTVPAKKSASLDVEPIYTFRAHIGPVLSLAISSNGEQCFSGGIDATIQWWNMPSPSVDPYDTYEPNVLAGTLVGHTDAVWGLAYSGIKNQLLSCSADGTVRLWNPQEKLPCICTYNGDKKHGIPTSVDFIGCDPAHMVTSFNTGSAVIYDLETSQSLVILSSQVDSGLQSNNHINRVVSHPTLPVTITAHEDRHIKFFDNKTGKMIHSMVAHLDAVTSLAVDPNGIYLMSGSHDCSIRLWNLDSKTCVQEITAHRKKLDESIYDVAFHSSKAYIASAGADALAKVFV
UniProt Q9P289: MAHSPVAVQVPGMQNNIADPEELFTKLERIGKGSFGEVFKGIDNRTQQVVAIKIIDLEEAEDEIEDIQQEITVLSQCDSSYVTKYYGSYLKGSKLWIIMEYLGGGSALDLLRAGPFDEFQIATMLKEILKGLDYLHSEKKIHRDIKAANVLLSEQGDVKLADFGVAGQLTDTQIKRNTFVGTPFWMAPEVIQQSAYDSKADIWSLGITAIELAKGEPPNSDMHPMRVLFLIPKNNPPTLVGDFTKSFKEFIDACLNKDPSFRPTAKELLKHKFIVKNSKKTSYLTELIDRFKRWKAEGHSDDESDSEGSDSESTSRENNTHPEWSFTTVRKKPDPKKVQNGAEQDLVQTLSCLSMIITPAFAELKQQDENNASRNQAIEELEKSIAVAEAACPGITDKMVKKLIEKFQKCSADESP
UniProt Q6PIF2: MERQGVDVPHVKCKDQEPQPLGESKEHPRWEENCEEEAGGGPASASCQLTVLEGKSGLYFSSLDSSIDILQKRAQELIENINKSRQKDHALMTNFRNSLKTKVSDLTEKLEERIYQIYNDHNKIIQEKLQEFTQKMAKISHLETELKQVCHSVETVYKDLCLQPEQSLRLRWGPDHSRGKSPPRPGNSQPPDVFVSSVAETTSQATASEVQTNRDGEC
UniProt Q9UBS9: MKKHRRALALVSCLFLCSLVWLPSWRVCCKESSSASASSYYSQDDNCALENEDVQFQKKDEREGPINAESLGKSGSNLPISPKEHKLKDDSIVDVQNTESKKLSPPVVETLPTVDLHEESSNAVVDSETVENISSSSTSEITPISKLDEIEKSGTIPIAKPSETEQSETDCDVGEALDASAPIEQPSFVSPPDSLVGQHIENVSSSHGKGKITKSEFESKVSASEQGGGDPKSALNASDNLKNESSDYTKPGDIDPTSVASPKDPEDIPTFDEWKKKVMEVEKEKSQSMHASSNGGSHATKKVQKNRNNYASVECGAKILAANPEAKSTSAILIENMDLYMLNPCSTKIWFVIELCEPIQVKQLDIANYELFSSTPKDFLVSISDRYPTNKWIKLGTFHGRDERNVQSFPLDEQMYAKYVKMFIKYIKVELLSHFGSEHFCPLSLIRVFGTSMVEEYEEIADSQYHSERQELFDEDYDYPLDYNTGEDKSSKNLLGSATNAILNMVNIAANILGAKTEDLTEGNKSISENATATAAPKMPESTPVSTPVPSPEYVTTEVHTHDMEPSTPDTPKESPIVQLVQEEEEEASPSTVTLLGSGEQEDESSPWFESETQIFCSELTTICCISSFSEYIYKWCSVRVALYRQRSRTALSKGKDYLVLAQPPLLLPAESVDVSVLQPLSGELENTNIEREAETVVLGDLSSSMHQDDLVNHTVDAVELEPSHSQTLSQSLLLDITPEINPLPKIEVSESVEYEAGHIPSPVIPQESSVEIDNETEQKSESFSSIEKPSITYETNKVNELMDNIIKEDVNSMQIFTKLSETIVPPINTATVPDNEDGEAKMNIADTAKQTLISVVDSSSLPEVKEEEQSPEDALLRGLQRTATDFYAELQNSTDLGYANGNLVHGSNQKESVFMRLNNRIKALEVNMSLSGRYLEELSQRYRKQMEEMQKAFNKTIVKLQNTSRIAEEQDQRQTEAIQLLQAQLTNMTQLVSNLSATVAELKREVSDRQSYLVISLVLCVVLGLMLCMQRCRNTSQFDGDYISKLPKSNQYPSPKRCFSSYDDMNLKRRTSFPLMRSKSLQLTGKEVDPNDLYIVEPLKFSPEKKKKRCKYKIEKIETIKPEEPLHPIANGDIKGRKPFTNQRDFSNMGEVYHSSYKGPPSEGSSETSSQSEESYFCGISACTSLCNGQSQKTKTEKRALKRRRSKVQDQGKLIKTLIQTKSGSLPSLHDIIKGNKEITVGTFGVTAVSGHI
UniProt O60506: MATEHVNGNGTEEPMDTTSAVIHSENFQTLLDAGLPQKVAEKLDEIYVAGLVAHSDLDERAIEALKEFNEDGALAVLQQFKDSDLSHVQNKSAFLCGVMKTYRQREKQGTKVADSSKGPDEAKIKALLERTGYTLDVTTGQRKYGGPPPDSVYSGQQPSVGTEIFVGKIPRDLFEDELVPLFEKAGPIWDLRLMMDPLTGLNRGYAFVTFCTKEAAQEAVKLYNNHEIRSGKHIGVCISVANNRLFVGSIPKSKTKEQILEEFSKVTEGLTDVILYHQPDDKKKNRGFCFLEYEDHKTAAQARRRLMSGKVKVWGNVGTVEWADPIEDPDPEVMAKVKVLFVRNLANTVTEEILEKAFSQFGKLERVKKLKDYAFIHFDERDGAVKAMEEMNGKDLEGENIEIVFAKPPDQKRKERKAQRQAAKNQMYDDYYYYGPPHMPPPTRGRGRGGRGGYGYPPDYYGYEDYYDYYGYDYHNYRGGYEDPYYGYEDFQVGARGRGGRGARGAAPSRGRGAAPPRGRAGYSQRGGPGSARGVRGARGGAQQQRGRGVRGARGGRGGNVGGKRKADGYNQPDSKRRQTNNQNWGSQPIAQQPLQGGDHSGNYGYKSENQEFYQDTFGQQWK
UniProt O75486: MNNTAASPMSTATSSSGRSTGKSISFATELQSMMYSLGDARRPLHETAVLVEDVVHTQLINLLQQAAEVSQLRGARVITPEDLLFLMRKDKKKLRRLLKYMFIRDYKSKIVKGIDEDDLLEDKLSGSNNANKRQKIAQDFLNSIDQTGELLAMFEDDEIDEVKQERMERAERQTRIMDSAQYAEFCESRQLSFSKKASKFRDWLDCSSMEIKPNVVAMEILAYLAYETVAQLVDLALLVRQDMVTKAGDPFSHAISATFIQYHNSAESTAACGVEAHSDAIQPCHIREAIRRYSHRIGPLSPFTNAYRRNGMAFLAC
UniProt Q9H668: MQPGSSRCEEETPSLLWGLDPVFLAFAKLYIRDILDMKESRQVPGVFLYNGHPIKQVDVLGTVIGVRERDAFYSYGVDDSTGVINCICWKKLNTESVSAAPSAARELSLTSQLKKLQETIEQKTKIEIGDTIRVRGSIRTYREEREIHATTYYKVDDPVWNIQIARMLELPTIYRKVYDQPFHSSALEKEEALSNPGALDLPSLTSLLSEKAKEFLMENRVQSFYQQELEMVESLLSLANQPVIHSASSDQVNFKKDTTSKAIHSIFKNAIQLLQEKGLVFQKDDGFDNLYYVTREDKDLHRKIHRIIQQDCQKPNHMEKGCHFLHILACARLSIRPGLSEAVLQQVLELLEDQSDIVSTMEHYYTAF

compound: Cn1cc(-c2ccc3c(c2)CCN3C(=O)Cc2cccc(C(F)(F)F)c2)c2c(N)ncnc21; experiment: log2 fold change, soluble protein after heating vs DMSO (PISA); higher = thermal stabilisation; K562 lysate, 10 uM; active = over 0.2 and 3.5 SD of the protein, either way, in both replicates (recomputed)
How it was run: (§1)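 Following dounce homogenisation of K562 pellets in PBS pH 7.4 with 1 mM MgCl2, crude extract at 1 mg/mL protein was incubated for 30 min with 10 μM compound. Aliquots were then heated for 3 min over 48°C-58°C and pooled, NP-40 was added to 0.5% at 4°C, and soluble protein was recovered as the supernatant at 21,000xg for 90 min. Channel-sum-equalised TMTpro 16plex LC-MS/MS quantified this protein. Each value, from duplicates, is a log-two fold change in thermal stability relative to solvent controls.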

log2 fold change, inactive:
TAF5 (UniProt Q15542) 0.009, STK19 (UniProt P49842) -0.219, TAF1C (UniProt Q15572) 0.083, STK35 (UniProt Q8TDR2) 0.041, SUN2 isoform 2 (UniProt Q9UH99) 0.348, SYTL2 isoform 8 (UniProt Q9HCH5) -0.083, STK3 isoform 2 (UniProt Q13188) 0.276, SZT2 (UniProt Q5T011) -0.122, STK38L (UniProt Q9Y2H1) 0.102, SWSAP1 (UniProt Q6NVH7) -0.021, STRN3 (UniProt H0YJT2) 0.13, SULT1A3 isoform 3 (UniProt P0DMM9) 0.28, STRN3 isoform 2 (UniProt Q13033) -0.093, STK26 isoform 3 (UniProt Q9P289) -0.028, SUGCT isoform 3 (UniProt Q9HAC7) 0.103, SUSD1 isoform 2 (UniProt Q6UWL2) 0.02, STK16 (UniProt O75716) 0.105, STK10 (UniProt O94804) 0.007

compound: Cn1cc(CNCC2CCN(c3ncc(C(=O)NO)cn3)CC2)c2ccccc21 [quisinostat]; experiment: as above
How it was run: as §1

log2 fold change, inactive:
SVBP (UniProt Q8N300) -0.096, SYNGR1 isoform 2 (UniProt O43759) -0.059, SYCE2 (UniProt Q6PIF2) -0.118, STS (UniProt P08842) -0.061, STK19 (UniProt P49842) 0.14, TAF1C (UniProt Q15572) 0.219, SUCO isoform 2 (UniProt Q9UBS9) -0.092, SYNCRIP isoform 3 (UniProt O60506) 0.01, SUN2 isoform 2 (UniProt Q9UH99) 0.014, STK3 isoform 2 (UniProt Q13188) -0.077, STK38L (UniProt Q9Y2H1) -0.122, SUPT3H (UniProt O75486) -0.145, SUFU (UniProt Q9UMX1) 0.141, TADA2A (UniProt O75478) -0.132, SULT1A3 isoform 3 (UniProt P0DMM9) -0.066, STN1 (UniProt Q9H668) -0.104, STXBP6 (UniProt Q8NFX7) -0.072, STK26 isoform 3 (UniProt Q9P289) 0.093, SUSD1 isoform 2 (UniProt Q6UWL2) -0.051, STK16 (UniProt O75716) 0.033, STK10 (UniProt O94804) -0.462
